Measurements taken from article PMC11222155.
These are yes or no findings as the source states them, for the method shown. For some assays here: In cells and extracts the contact can be indirect. Some entries that bind do so weakly or less than the wild type. Where a sequence is shown, tags or fusion partners need not be part of it. Values belong to the binder of their own block, whether it stands above or below them.

What was measured:
[1] = target: T1, GasA tagged N terminally with the N-terminal half of GFP (A. flagrans); assay: split reporter; split GFP in A. flagrans hyphae; gprC-GFPC and GFPN-gasA each from its own promoter; hyphae induced with nematodes (uninduced hyphae and single-construct strains as controls); fluorescence microscopy
T1 sequence: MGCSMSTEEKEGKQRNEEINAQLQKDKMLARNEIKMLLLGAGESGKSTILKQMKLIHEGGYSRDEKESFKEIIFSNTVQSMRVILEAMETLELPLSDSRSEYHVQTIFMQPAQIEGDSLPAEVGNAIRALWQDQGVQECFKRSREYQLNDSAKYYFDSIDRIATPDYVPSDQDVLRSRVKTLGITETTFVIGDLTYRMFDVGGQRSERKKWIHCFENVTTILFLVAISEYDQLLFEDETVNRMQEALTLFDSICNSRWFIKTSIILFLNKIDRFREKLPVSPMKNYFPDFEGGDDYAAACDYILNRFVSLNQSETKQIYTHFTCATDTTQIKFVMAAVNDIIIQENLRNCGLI

[2] = target: T2, GasA (yeast two-hybrid fusion) (A. flagrans); assay: two-hybrid; Matchmaker Gold system (Clontech); pGBKT7 and pGADT7; strains AH109 and Y187 mated; dilution series on SD-LW and SD-LWH agar plates for 3-5 days
T2 sequence: T1 sequence

binding [1]: binds
B1: GprC tagged at the C terminus with the C-terminal half of GFP (receptor, UniProt A0A437AGY2 1-538)
chain: MAFTTLSFTIAVLNLIGSLSSFFGSGFIVVTYLLLPIKRHFRHSLILNLAIADFINSSNNSTSGLWRLLKRREIPDSPGCVTNGFLGQLSVQATDTSILAIAIVTVWSLTRKTTICETLPRTTTALICATTWILPITTSFIALGMNRYGPVSGNWCWIKAEPSYFRYVMTHGWRFAFILSEIVMYTYLHFYIRKRFGAFLDASRCSSHTGRSTVRDVGTEFRNDSMAIRLDSVAIRNDSLAPAEEPQRSDSQMPFSITDEGDIRPIGARGQDLESGEAFVRTEVWISETYDDKTLPAHAVTTTISSGNNSLEQPNTDLRPETANTIESRRPKFSNPFAHRRADEDDLADVDVNDENERKIRQQNASRSRRVRRILLLNAYPAMYILLWIPGIINRLIEASGGKSSVMQIMQASTQFVGLANAITYGWNERVWRQLKDYIADRWGSDRKRSVEELAVQKVELENRLRVGLKGSKERLREIRDGLRSPNKKDDDEVPLDNRGQLMYINGTWQWSQTASINSQDGDADDREISRDPGPRRE

binding [2]: binds
B2: full-length GprC (yeast two-hybrid fusion) (receptor, UniProt A0A437AGY2 1-538)
chain: B1 chain
